Values of other authors, collected in patent US12060355B2, “Compounds for use in the treatment of fascioliasis” (Merck Patent GmbH, priority 2018, dated 2024).
At least one compound was matched to its structure with a doubt left.

Test system: juvenile worms
Settings: mice, oral 400 mg/kg single dose; Keiser et al. 2010; cited from earlier work

CO[C@H]1O[C@@H]2O[C@@]3(C)CC[C@H]4[C@H](C)CC[C@@H]([C@H]1C)[C@@]24OO3 [Artemether]
effectiveness against juvenile compared with adult S. mansoni: equally or more effective
